Experimental data as given in article PMC12170509.
No constants are given. Whether binding was seen depends on the method and setting. In cells and extracts the contact can be indirect. Here binding means that the protein was enriched with, or labelled near, the bait; the list need not be complete.

Protein sequences, listed by entry. Tags and fused reporters are not part of them.
UniProt P63208: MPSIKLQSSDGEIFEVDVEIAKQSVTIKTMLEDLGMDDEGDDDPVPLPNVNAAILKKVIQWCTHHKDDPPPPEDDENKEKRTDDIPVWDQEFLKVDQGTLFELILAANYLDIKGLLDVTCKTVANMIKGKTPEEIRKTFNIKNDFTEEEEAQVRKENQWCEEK

Biological target: T1, PDLIM2 (bait of the mass-spectrometry-based proteomic screening) (UniProt Q8R1G6)
T1 sequence: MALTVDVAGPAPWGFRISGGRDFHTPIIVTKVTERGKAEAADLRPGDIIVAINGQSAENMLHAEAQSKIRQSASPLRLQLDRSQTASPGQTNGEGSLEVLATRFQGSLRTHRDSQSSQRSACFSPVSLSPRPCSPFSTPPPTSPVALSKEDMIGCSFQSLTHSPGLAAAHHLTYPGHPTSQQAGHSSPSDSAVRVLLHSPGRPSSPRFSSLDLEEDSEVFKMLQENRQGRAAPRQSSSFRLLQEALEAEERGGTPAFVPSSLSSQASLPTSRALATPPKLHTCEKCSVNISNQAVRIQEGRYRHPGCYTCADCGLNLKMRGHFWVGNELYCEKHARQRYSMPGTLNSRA
Test: affinity purification with mass spectrometry; mass-spectrometry-based proteomic screening for proteins coimmunoprecipitated with PDLIM2 ('our initial study'); no details given

binding: binds
Substance: Skp1 (hit of the mass-spectrometry-based proteomic screening) (from UniProt P63208 1-163)
